Experimental data as given in patent publication US20040175720A1 (NEW YORK UNIVERSITY, published 2004).
Results are given in words; binding and its absence hold for the method and conditions named. Some binding calls cover weakened binding; strength is not graded here.

Protein sequences, listed by entry. Tags and fused reporters are not part of them. Lines headed by an entry give the natural chain unless they say otherwise; changes in a name come on top.
UniProt P0A7C2: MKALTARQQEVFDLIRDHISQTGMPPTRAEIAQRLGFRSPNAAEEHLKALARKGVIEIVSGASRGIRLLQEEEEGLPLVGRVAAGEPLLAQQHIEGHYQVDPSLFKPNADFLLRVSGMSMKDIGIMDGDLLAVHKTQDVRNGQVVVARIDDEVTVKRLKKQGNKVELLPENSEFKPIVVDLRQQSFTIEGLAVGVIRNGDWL
UniProt P04625: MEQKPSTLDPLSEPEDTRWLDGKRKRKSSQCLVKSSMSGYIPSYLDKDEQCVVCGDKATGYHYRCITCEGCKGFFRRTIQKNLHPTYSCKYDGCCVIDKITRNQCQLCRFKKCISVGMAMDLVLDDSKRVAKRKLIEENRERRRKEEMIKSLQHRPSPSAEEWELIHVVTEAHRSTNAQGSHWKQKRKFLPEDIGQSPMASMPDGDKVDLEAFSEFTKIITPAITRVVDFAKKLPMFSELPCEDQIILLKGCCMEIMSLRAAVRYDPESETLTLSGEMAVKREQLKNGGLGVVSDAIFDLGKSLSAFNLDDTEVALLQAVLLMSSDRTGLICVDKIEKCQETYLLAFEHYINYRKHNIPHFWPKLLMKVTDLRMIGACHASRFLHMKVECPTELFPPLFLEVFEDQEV
UniProt P03372: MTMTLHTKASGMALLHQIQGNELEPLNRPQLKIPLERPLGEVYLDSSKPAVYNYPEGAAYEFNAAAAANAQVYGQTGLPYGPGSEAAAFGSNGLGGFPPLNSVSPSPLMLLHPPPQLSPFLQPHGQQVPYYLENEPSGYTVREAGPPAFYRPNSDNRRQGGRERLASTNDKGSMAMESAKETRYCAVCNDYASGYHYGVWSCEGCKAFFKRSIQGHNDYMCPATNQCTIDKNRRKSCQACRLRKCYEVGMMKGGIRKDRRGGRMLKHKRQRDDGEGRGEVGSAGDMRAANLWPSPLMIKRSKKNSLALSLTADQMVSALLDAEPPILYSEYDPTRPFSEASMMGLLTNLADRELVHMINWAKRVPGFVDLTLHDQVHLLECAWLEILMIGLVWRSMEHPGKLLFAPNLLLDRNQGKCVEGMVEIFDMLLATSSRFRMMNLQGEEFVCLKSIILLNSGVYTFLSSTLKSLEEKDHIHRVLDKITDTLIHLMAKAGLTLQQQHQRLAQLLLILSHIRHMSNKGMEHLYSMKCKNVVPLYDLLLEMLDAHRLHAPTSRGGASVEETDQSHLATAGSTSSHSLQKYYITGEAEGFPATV
UniProt P10276: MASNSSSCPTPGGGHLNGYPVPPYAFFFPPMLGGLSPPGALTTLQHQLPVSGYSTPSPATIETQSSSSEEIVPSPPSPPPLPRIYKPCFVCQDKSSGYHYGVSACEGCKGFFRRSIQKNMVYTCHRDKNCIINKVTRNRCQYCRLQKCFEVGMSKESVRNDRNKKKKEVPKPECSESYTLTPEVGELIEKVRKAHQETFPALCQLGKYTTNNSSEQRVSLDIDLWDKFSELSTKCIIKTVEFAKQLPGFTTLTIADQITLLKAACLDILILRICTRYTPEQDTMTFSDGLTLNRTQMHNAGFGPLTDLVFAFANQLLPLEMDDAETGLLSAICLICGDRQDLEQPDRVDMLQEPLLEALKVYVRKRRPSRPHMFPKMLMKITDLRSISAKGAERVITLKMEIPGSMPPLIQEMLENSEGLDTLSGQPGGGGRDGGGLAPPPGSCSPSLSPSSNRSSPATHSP
UniProt P04150: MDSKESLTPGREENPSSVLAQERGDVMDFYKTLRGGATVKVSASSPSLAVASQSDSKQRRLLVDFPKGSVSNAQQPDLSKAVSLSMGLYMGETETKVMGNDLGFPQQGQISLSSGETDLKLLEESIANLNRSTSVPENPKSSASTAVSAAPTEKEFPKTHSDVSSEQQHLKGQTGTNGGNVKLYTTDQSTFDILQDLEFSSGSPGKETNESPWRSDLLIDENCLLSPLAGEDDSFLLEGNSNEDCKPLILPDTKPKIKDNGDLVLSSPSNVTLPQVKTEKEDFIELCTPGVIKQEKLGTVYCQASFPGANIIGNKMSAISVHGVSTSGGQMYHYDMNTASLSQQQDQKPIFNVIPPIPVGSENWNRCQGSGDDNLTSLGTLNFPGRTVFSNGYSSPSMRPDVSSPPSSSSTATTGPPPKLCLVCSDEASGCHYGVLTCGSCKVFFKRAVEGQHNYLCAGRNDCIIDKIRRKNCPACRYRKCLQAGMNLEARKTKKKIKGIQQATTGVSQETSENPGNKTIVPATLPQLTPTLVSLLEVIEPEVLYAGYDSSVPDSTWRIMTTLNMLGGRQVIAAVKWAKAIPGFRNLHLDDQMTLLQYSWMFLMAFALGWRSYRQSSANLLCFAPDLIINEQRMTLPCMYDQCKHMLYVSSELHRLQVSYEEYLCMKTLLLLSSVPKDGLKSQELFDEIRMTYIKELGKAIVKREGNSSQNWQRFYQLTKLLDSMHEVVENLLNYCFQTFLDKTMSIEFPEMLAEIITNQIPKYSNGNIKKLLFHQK
UniProt Q07869: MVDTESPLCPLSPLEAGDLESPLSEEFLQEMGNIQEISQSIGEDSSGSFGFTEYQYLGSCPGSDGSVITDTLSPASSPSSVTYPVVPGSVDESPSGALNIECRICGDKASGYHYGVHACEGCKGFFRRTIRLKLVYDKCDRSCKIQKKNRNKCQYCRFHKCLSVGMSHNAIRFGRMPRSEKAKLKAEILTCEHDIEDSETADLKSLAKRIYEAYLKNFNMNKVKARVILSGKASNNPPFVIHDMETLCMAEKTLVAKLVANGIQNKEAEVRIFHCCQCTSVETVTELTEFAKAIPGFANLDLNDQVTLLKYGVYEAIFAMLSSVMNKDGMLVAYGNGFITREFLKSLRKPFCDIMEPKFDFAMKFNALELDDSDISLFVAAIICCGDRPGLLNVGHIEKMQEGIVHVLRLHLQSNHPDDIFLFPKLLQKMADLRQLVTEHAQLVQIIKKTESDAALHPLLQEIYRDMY
UniProt P19793: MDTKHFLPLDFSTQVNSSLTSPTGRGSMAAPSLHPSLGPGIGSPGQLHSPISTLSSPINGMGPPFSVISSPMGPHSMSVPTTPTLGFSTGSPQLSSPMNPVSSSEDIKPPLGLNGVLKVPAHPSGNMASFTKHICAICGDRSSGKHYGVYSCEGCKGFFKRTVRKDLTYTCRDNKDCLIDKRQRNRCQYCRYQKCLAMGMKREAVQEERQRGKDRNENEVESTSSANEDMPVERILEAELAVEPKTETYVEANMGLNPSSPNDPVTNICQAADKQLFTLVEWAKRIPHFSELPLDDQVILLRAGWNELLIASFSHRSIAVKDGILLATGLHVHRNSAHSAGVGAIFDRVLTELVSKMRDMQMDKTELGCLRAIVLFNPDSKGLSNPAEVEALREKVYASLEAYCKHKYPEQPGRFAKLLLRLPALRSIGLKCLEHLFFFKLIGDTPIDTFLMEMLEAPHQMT
UniProt Q14686: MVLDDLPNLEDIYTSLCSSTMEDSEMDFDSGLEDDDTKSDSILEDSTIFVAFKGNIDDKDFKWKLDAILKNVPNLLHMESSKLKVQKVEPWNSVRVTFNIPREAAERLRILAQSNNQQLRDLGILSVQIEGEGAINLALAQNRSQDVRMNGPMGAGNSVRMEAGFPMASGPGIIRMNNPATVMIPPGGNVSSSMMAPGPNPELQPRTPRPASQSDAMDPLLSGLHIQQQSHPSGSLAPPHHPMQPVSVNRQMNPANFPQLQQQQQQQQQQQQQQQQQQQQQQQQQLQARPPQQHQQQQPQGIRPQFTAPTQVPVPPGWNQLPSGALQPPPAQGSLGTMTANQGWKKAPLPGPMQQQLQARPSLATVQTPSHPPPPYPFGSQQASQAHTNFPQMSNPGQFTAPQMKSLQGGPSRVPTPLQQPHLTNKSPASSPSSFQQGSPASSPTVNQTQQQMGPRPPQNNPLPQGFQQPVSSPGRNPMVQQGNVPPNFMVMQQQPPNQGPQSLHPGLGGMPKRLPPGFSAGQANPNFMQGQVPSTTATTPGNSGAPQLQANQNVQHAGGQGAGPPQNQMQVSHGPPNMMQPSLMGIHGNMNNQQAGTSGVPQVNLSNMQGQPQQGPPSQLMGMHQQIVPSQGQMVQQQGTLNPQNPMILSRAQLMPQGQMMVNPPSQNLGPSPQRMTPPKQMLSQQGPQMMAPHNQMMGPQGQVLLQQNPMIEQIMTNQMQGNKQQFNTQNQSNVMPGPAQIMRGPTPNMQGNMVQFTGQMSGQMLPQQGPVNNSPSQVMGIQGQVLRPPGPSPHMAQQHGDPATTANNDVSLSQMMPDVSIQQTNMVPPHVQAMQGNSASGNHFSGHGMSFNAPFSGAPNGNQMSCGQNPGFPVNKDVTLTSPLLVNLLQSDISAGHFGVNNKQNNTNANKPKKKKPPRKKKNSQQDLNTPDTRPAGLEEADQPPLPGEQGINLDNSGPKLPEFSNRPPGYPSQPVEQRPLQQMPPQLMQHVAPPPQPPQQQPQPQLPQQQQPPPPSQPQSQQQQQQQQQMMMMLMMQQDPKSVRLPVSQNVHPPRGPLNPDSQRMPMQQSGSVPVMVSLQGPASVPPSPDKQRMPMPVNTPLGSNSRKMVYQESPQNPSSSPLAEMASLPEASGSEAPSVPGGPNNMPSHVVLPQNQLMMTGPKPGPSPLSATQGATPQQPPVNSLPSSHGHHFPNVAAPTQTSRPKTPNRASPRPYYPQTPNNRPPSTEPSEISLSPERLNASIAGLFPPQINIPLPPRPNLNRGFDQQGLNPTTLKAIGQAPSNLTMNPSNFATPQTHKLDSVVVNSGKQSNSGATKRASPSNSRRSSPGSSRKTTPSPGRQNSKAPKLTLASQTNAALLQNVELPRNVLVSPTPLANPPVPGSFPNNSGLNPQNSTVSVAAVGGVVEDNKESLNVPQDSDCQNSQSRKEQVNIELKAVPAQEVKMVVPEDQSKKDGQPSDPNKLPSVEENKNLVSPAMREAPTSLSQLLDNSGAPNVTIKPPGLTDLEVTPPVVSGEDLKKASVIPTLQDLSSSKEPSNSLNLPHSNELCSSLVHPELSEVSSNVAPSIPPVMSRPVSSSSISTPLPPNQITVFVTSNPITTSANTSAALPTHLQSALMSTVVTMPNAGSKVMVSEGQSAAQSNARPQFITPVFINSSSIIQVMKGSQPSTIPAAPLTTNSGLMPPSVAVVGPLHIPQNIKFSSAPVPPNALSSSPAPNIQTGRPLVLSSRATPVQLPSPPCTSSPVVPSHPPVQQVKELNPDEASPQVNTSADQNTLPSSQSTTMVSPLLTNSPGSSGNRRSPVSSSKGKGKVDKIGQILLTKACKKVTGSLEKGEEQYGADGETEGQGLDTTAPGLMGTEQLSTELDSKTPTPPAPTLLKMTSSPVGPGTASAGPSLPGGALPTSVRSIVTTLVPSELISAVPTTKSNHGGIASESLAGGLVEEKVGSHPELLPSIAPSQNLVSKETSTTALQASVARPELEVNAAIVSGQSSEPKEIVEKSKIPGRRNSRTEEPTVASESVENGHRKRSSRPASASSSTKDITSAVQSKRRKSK

How the values were obtained:
[1] = molecular target: T1, LexA-cTRα LBD (LexA fusion of the ligand binding domain of cTRα) (chicken) (UniProt P0A7C2+P04625); experiment: yeast two-hybrid with T3, β-galactosidase (FIG. 7)
[2] = molecular target: LexA-human ERα-LBD (LexA fusion of the ligand binding domain of hERα) (human) (UniProt P0A7C2+P03372); experiment: yeast two-hybrid with cognate ligand
[3] = molecular target: LexA-hRARα LBD (LexA fusion of the ligand binding domain of hRARα) (human) (UniProt P0A7C2+P10276); experiment: yeast two-hybrid with cognate ligand
[4] = molecular target: LexA-hGR LBD (LexA fusion of the ligand binding domain of hGR) (human) (UniProt P0A7C2+P04150); experiment: yeast two-hybrid with cognate ligand
[5] = molecular target: LexA-hPPARα LBD (LexA fusion of the ligand binding domain of hPPARα) (human) (UniProt P0A7C2+Q07869); experiment: yeast two-hybrid with cognate ligand
[6] = molecular target: LexA-hRXRα LBD (LexA fusion of the ligand binding domain of hRXRα) (human) (UniProt P0A7C2+P19793); experiment: yeast two-hybrid with cognate ligand
[7] = molecular target: T1, LexA-cTRα LBD (LexA fusion of the ligand binding domain of cTRα) (chicken); experiment: yeast two-hybrid with T3, β-galactosidase

Measured: binding

B42-NRC (B42 activation domain fusion of NRC) (from UniProt Q14686 1-2063)
binds: all assays above
